{"source": "paper PMC4531439", "about": "“New insights into the molecular mechanism of the Rab GTPase Sec4p activation” (BMC Structural Biology, 2015)", "key": {"[1]": {"target": "T1, Sec4p (19–187) S29V (S. cerevisiae) (UniProt P07560)", "T1 sequence": "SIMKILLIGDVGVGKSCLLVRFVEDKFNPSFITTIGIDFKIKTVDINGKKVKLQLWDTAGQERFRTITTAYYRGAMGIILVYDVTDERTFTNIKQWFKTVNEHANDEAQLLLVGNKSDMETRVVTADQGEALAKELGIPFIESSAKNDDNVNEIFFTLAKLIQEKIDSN", "experiment": "crystal structure; ternary complex Sec4p(19-187) S29V.GDP.Sec2p(51-142) at 15 mg/ml; 24 % PEG3350, 0.2 M sodium citrate, 10 mM GDP added to the drop; 2.9 Å, space group I222, one ternary complex per asymmetric unit; both purified"}, "[2]": {"target": "T1, Sec4p (19–187) S29V (S. cerevisiae)", "experiment": "SEC; data not shown; 1.8-fold molar excess of Sec2p(51-142) mixed with Sec4p(19-187) S29V in 20 mM Tris-HCl pH 8.0, 100 NaCl, 5 mM MgCl2, 2 h at 4 °C; Superdex200 (10/300); complex formation evaluated by SDS-PAGE; in presence of nucleotide and magnesium; both purified"}}, "note": "Results are given in words; binding and its absence hold for the method and conditions named. Some results given as binding are weak or reduced against the parent protein; the word gives no strength."}
{"binder": "Sec2p (51–142) (domain or fragment, UniProt P17065 51-142, looked up) NYNQLKEDYNTLKRELSDRDDEVKRLREDIAKENELRTKAEEEADKLNKEVEDLTASLFDEANNMVADARKEKYAIEILNKRLTEQLREKDT", "values": [{"measurement": "binding", "setting": "[1]", "result": "binds"}, {"measurement": "binding", "setting": "[2]", "result": "binds"}]}
